Article PMC9910802
No constants are given. Whether binding was seen depends on the method and setting. Binding seen in cells or lysates may run through a third protein. A yes stands for co-enrichment or nearness to the bait. Other partners may have been found. A no says only that the protein was not detected with the bait. Where a sequence is shown, tags or fusion partners need not be part of it.

Target: T1, Verticillium transcription activator of adhesion 3 (Vta3) fused to GFP (Verticillium dahliae) (UniProt G2WUC4)
T1 sequence: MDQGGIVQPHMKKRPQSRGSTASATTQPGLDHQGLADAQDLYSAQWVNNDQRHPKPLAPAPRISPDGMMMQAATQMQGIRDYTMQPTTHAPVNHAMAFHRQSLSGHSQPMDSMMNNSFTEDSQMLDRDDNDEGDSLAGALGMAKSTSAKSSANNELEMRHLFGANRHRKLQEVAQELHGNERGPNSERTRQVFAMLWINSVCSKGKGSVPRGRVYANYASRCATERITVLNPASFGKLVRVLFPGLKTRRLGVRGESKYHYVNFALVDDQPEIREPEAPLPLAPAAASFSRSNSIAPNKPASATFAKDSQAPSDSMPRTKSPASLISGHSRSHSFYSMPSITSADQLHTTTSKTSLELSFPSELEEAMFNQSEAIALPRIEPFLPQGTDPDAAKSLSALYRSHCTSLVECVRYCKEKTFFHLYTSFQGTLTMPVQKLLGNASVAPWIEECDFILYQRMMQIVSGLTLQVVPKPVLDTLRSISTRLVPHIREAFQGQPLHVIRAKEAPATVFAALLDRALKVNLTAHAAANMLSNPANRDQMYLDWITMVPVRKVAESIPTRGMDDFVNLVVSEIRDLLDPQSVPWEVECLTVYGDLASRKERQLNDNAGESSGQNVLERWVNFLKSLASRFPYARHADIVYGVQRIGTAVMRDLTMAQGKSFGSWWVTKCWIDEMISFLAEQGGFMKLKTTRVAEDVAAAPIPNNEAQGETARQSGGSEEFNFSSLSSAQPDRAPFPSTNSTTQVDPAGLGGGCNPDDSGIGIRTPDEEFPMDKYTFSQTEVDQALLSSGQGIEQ
Assay: affinity purification with mass spectrometry; GFP-Trap Agarose beads (15 ul) on protein extracts of the VTA3-GFP expressing strain grown five days in liquid PDM at 25°C; controls: wild-type and wild-type overexpressing GFP; LC/MS, enrichment of Vta3-GFP versus wild-type

B1: Master transcription factor 1 (Mtf1) (protein, UniProt G2WVT2 1-321)
chain: MHHYISNTQGATTTQYAYVPQPPPSPPMDESTKCSLPSISNLLGLADQGSPTSETHPQNQQVLKGEAVSAKPETRPSSSHYGGSHSQTRANFPPTPPMSTDASFDGYNSPSTRSVSQMSAVSAPHPHNYYYETTPPLEDVHHQHQRAMSHTPAARLPIHQTTPYPPPASSHYPSASAAASSYLPPHHQQPQHHHSVGPVPFYPPPQAQITSLYYQRPLPAAFPPSVAPPTMLGGPNPWQHHHYISPSAAASFPQSQDRYVCPTCNKAFSRPSSLRIHSHSHTGEKPFKCPHGGCGKAFSVRSNMKRHERGCHSFDGAAPVS
With B1 the binding was “no binding”.
